The exact form of at least one protein or probe is not confirmed. Negatives hold for the conditions tested. Protein sequences can lack the tags named with them.
System: T1, GAL4AD-PvMYB4 (Panicum virgatum)
T1 sequence (limits assumed): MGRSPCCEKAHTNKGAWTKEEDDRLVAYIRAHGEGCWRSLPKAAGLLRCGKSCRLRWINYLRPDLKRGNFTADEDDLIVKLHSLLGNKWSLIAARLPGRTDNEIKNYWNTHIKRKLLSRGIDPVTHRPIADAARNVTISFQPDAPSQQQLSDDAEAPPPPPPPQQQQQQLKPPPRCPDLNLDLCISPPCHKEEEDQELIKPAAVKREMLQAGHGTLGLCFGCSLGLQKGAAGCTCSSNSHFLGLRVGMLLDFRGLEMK
Experiment: one hybrid
Details: protein in cells, protein details: GAL4 activation domain fusion, yeast YM4721, only the site is given

[1] = yeast lacZ reporter, range over AC-I to AC-III

| Sequence | activity on this sequence [1] | activity on this sequence (no repression in yeast) |
| --- | --- | --- |
| ACCAACC (double strand) [AC-II element (3 copies in lacZ reporter)] | active | – |
| ACCTACC (double strand) [AC-I element (3 copies in lacZ reporter)] | active | – |
| ACCTAAC (double strand) [AC-III element (3 copies in lacZ reporter)] | active | – |
| ACCAAAC (double strand) [AC-IV element (3 copies in lacZ reporter)] | – | not active |

From patent US20120322122
